# Test results published in PubChem BioAssay AID248 (DTP/NCI, 2004).
# The list does not hold the whole screen: it is rich in T/C values a quarter to a half above the control, in often repeated tests (any T/C) and in doses without a T/C. Other doses and runs of a compound stand elsewhere. T/C is the treated group as % of the vehicle group. Some doses have a count of surviving animals in place of a T/C: the source files T/C as zero there, which appears to mark a toxic dose or a test without result, not a measured value. Some survivor counts are full or nearly so, which does not show that the dose was tolerated: the source hardly ever lists a survival T/C far under the control, and the zero likely stands for such cases as well. Counts of survivors are from the toxicity check (mostly the fifth day) where no day follows; animals may have died later. Schedules are NCI's codes, taken here to give the interval after Q, in days (D) or hours (H), and the number of doses after X. Some doses were run more than once; the results are listed from low to high. Some schedules carry Z or #; the key to these is not given. Where survival is the endpoint, this PubChem deposit counts one and a half times the control or more as active, and values a quarter to a half above the control carry no call in these data; other NCI protocols may use other cut-offs.
# System: L1210 leukemia ip in BDF1 mice, survival T/C
# Assay: NCI In Vivo Anticancer Drug Screen. Data for tumor model L1210 Leukemia (intraperitoneal) in B6D2F1 (BDF1) mice
# Settings: T/C endpoint: mean survival time, higher T/C = longer survival
# [1] = dose: 100.0 mg/kg/injection, schedule: Q01DX009 (ip), vehicle: saline
# [2] = dose: 300.0 mg/kg/injection, schedule: Q01DX001 (ip), vehicle: saline
compound,measurement,setting,value
CC(C)=CC(=O)OC1C2C(C)C(=O)OC2C(O)C(C)C2C=CC(=O)C21C (configuration not stated),survivor count,"dose: 100.0 mg/kg/injection, schedule: Q01DX009 (ip), vehicle: Klucel (hydroxypropylcellulose) (HPC)",3 of 6
same,survivor count,[1],1 of 6
Cc1ccc(N=NN(C)C)cc1,T/C,"dose: 26.6 mg/kg/injection, schedule: Q01DX Z (ip), vehicle: methylcellulose (MC)",135 % of control
same,T/C,"dose: 40.0 mg/kg/injection, schedule: Q01DX Z (ip), vehicle: methylcellulose (MC)",144 % of control
same,T/C,"dose: 60.0 mg/kg/injection, schedule: Q01DX Z (ip), vehicle: methylcellulose (MC)",139 and 142 % of control
same,T/C,"dose: 90.0 mg/kg/injection, schedule: Q01DX Z (ip), vehicle: carboxymethylcellulose (CMC)",136 % of control
same,T/C,"dose: 90.0 mg/kg/injection, schedule: Q01DX Z (ip), vehicle: methylcellulose (MC)",127 % of control
same,survivor count,"dose: 125.0 mg/kg/injection, schedule: Q01DX001 (ip), vehicle: saline with Tween-80",4 of 10
same,survivor count,"dose: 250.0 mg/kg/injection, schedule: Q01DX001 (ip), vehicle: saline with Tween-80",0 of 10
same,survivor count,"dose: 360.0 mg/kg/injection, schedule: Q01DX Z (ip), vehicle: carboxymethylcellulose (CMC)",0 of 6
CN(C)CCN(Cc1ccc(Cl)cc1)c1ccccn1,survivor count,"dose: 50.0 mg/kg/injection, schedule: Q01DX009 (ip), vehicle: saline",0 of 3
same,survivor count,[1],0 of 3
same,survivor count,"dose: 200.0 mg/kg/injection, schedule: Q01DX009 (ip), vehicle: saline",0 of 3
CN(C)N=Nc1ccc2ncccc2c1[N+](=O)[O-],survivor count,"dose: 400.0 mg/kg/injection, schedule: Q01DX001 (ip), vehicle: other",1 of 6
O=C(NCc1ccccc1Cl)Nc1ccc(F)cc1,survivor count,"dose: 200.0 mg/kg/injection, schedule: Q01DX009 (ip), vehicle: carboxymethylcellulose (CMC)",1 of 3
same,survivor count,"dose: 400.0 mg/kg/injection, schedule: Q04DX002 (ip), vehicle: carboxymethylcellulose (CMC)",4 of 6 and 3 of 3
NC(=S)N/N=C\c1c[nH]c2cc(C(F)(F)F)ccc12,survivor count,"dose: 80.0 mg/kg/injection, schedule: Q01DX001 (ip), vehicle: carboxymethylcellulose (CMC)",0 of 4
same,survivor count,"dose: 100.0 mg/kg/injection, schedule: Q01DX001 (ip), vehicle: carboxymethylcellulose (CMC)",0 of 4
same,survivor count,"dose: 200.0 mg/kg/injection, schedule: Q01DX001 (ip), vehicle: carboxymethylcellulose (CMC)",0 of 4
same,survivor count,"dose: 400.0 mg/kg/injection, schedule: Q01DX001 (ip), vehicle: carboxymethylcellulose (CMC)",0 of 4
c1ccc(C(=C2CCC2)c2c3ccccc3cc3ccccc23)cc1,survivor count,"dose: 300.0 mg/kg/injection, schedule: Q01DX001 (ip), vehicle: Klucel (hydroxypropylcellulose) (HPC)",6 of 6
CCCCCC(CC)C(CC)CO (configuration not stated),survivor count,"dose: 75.0 mg/kg/injection, schedule: Q01DX001 (ip), vehicle: carboxymethylcellulose (CMC)",1 of 6
same,survivor count,"dose: 150.0 mg/kg/injection, schedule: Q01DX001 (ip), vehicle: carboxymethylcellulose (CMC)",1 of 6
same,survivor count,"dose: 300.0 mg/kg/injection, schedule: Q01DX001 (ip), vehicle: carboxymethylcellulose (CMC)",1 of 6
CCC(C)CC(C)c1ccncc1 (configuration not stated),survivor count,"dose: 200.0 mg/kg/injection, schedule: Q01DX001 (ip), vehicle: saline",0 of 6
same,survivor count,"dose: 400.0 mg/kg/injection, schedule: Q01DX001 (ip), vehicle: saline",1 of 6
O=C(C(=Nc1ccccc1)c1ccccc1)c1ccccc1,survivor count,"dose: 400.0 mg/kg/injection, schedule: Q04DX003 (ip), vehicle: saline with Tween-80",6 of 6
Fc1ccc(NC(=S)N/N=C\c2ccc(Cl)cc2Cl)cc1,survivor count,"dose: 480.0 mg/kg/injection, schedule: Q01DX Z (ip), vehicle: methylcellulose (MC)",2 of 6
COc1ccc(/C=C2\CCC3C4(CCCC3(C)C2=O)OCCO4)cc1 (configuration not stated),survivor count,[1],6 of 6
CC1(C)OC2C(CO)OC(n3cnc4c(=O)[nH]cnc43)C2O1 (configuration not stated),survivor count,[2],0 of 6
CC(CC(CCC(CC(C)CC(C)(C)C)N(C)C)N(C)C)CC(C)(C)C (configuration not stated),survivor count,"dose: 200.0 mg/kg/injection, schedule: Q04DX002 (ip), vehicle: Klucel (hydroxypropylcellulose) (HPC)",1 of 3
same,survivor count,"dose: 400.0 mg/kg/injection, schedule: Q04DX002 (ip), vehicle: Klucel (hydroxypropylcellulose) (HPC)",2 of 3
CCNC(C)(C)C(O)c1ccc(Cl)s1 (configuration not stated),survivor count,"dose: 400.0 mg/kg/injection, schedule: Q01DX009 (ip), vehicle: saline with Tween-80",0 of 6
CCC1(/C=C/C(C)C)C(=O)NC(=O)NC1=O,survivor count,[2],1 of 6
CN1CNC(C=O)(CCc2ccc(Cl)cc2)C1 (configuration not stated),survivor count,"dose: 100.0 mg/kg/injection, schedule: Q01DX001 (ip), vehicle: other",4 of 4
Cc1cc(Cl)nc(Cl)c1C#N,survivor count,"dose: 400.0 mg/kg/injection, schedule: Q01DX009 (ip), vehicle: Klucel (hydroxypropylcellulose) (HPC)",1 of 6
same,survivor count,"dose: 400.0 mg/kg/injection, schedule: Q04DX003 (ip), vehicle: Klucel (hydroxypropylcellulose) (HPC)",0 of 6
